No constants are given. Whether binding was seen depends on the method and setting.

The assay addresses T1, Human prostate specific antigen (hPSA) peptide 53–59: RHSLFHP (human).
T1 sequence (peptide): RHSLFHP
Put plainly: magnetic particle enzyme immunoassay (MPEIA); RHSLFHP coupled by EDC to SPHERO carboxyl magnetic particles; biotinylated peptide in two-fold dilutions 1.09–70 µM, room temperature, 30 min, PBS-Tween 20 washes; detected with streptavidin-peroxidase polymer and OPD, absorbance at 450 nm; both purified.

For EHFRW (biotin on the N-terminus) [N-terminal biotin peptide Biotin-EHFRW], the binding result is listed as “no binding”.

For the origin of these results see PMC6540241, “Targeting Tumor Markers with Antisense Peptides: An Example of Human Prostate Specific Antigen” (International Journal of Molecular Sciences, 2019).
